Results on 41 sequences are retold here after the supplement of paper PMC12764529.

± gives the half width of the 95% confidence interval. For many entries, trypsin and chymotrypsin gave values far apart.

Series [1] can be described thus: folding stability dG unfold (combined trypsin and chymotrypsin); higher = more stable. Here is the method:
(§1)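 Folding stability of de novo designed mini-proteins (<80 aa, no Cys; designed by TrROS, TrMRF, ProteinMPNN and the joint model) was measured by cDNA display proteolysis with trypsin and chymotrypsin. Each protease was used at 11 concentrations in a threefold dilution series plus a no-protease condition. K50 was inferred by Bayesian fitting of sequencing counts, and dG unfold was derived against a sequence-predicted unfolded-state K50 (Tsuboyama et al. method). Sequences shown include variable-length N-terminal GS-type padding (SAGGSAGG...) inside a display construct carrying a PA tag. Rows were kept only if the AF2 dimer inter-PAE was >15, to exclude likely homo-oligomers.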

Series [2] is described as follows: folding stability dG unfold from trypsin proteolysis; higher = more stable. The procedure:
as §1

A short description of series [3]: folding stability dG unfold from chymotrypsin proteolysis; higher = more stable. The procedure: as §1

On to “SAGGSAGGSAGGPIKVKADKVTVEKRRNPENGKEYVELTVPGPGGTRTGRFPAEDLDKISAGGSAGGSAGGS [r10_447_TrROS]”, for which the “folding stability dG unfold” value in series [1] is under -1 kcal/mol; in series [2], -0.654 ± 0.21 kcal/mol.
The matching figures for “SAGGSAGGSAAVLPPDSTLTETEVTPLPNGDLLVTTTTTLVTPEPTLETTTTTTLVAVAGTGSAGGSAGGSA [r18_273_JUSTAS]”: 1.04 ± 0.057 kcal/mol and 1.94 ± 0.064 kcal/mol.
For “MMEIKVKLVIERPDGKWLELTLTLKAPSLEELEEELRKLLEELGFKVESLEVRVERNEDGTVTVTVRIRIDS [r1_281_TrROS_Hall]”, the “folding stability dG unfold” value is over 6 kcal/mol in series [1] and 3.71 ± 0.17 kcal/mol in series [2].
Taken in the same sequence, the figures for “SMASLSPEEILKRIINKVNELEAEGYPPEKTPIEVTVPWPDPAAAEATREAILKEYPKVKNITIRHVPPGSA [r9_341_JUSTAS]” were under -1 kcal/mol and 1.17 ± 0.23 kcal/mol.
“SAGGSAGGSASSPVVTPVGDVITVTAPPNTTVTIKYPDGTVETRVVAADETVSVPLNASVVASAGGSAGGSA [r18_452_JUSTAS]”: the “folding stability dG unfold” value in series [1] was determined as 0.486 ± 0.045 kcal/mol; in series [2] it was 1.32 ± 0.028 kcal/mol.
In the case of “SAGGSAGGSAGGTVETLPDGGRREVEEVTAPDGTRLVRVRYFDPEGRPVSERVVPVEELESAGGSAGGSAGG [r7_660_JUSTAS]”, the results for the “folding stability dG unfold” value in series [3] and in series [1] were 2.067 ± 0.01 kcal/mol and 1.58 ± 0.039 kcal/mol, respectively.
Consider “SAEIVLTLDELRALAEAGDLERVRALLEEARALFPGARIRIVLPPPPPPPPPEPEEVEEERRRRRLEEESAG [r14_236_TrROS_Hall]”, for which the “folding stability dG unfold” value is 1.37 ± 0.05 kcal/mol in series [3] and 0.865 ± 0.13 kcal/mol in series [1].
The matching figures for “SAGGSAEKPVRTLEITVTVPPGQPTPEELARALAEELGVEVTRVEVVRVERNEDGELTVTVRVEVKSAGGSA [r15_654_TrROS_Hall]”: 2.5 ± 0.14 kcal/mol and 2.99 ± 0.14 kcal/mol.
As to “SAGGSAGGSAMTVNLNTPGEEAPSLIAEARAAGTPATVVVTPKEGNKLHPVTGEFPAPPLLSAGGSAGGSAG [r3_149_JUSTAS]”, the “folding stability dG unfold” value in series [3] is 1.25 ± 0.054 kcal/mol; in series [1] it was 0.653 ± 0.1 kcal/mol.
Taken in the same sequence, the figures for “SAGGSAGGSAGGSMIEVVPGPGRVTVTTITEVEPLPPHEAVVVKTETTVVPAGNPAALGSAGGSAGGSAGGS [r4_137_JUSTAS]” were 1.2 ± 0.02 kcal/mol and 0.696 ± 0.057 kcal/mol.
The matching figures for “SAGGSAGGMVVVGDKKVAIVTPEKDPEAVLEKVKKEVPGGNVTLRPDVSPEELKAANEIVIELPSAGGSAGG [r6_680_JUSTAS]”: 1.11 ± 0.032 kcal/mol and 0.614 ± 0.068 kcal/mol.
The matching figures for “SAGGSAGGSAGGMTTLVLPAEVEPVPDGVRVRLPDGEDLYVPPGERVERTPDRVEVTLGSAGGSAGGSAGGS [r10_305_JUSTAS]”: 0.383 ± 0.058 kcal/mol and -0.448 ± 0.25 kcal/mol.
As for “SAGGMIKIEIEVLVSPELTEEEKEAIAKETAEKVVKEIAEKNPELKEKIDIKNIKVTITPVEESEELQSAGG [r13_128_JUSTAS]”, the “folding stability dG unfold” value in series [3] worked out at 1.66 ± 0.23 kcal/mol; in series [1], 1.21 ± 0.34 kcal/mol.
Consider “SAGGSAGGSAGGPIEKALEFLAEHGGPVRVTLPDGRVAVIRVTRGDGALRVEIVPAEDLASAGGSAGGSAGG [r17_463_TrMRF]”, for which the “folding stability dG unfold” value was 1.21 ± 0.04 kcal/mol in series [3] and 0.647 ± 0.076 kcal/mol in series [1].
For the sequence “SGSLAERIAAEIRARGLELLETRVSYDPATGLTTVEMLARDPDDPATVRVEVTADPAADVVLARREEPEPSA [r9_814_JUSTAS]”, the “folding stability dG unfold” value in series [3] stood at 1.51 ± 0.026 kcal/mol; in series [1] it was 1.05 ± 0.036 kcal/mol.
Taken in the same sequence, the figures for “SAGGSAGGSAGPVVLPVPFLGVDPDGRPLPRLAVFVFVPEPLREAAREAAKEADLEVVLDSAGGSAGGSAGG [r17_114_TrMRF]” were 1.03 ± 0.27 kcal/mol and under -1 kcal/mol.
Taken in the same sequence, the figures for “SAGGSAGGSAGEKDLPVIEVEFPFPSSFPLPLIKKFAEPFGVKKVEFFEDGTVKVLYVLDSAGGSAGGSAGG [r11_961_TrMRF]” were 0.984 ± 0.14 kcal/mol and 0.806 ± 0.13 kcal/mol.
For the sequence “SAGGSAGGSGGTIKLPLYPPEGKEYKGTIPKEKLEAAIAKGEPIKVTLKTKGKEVKEYTIPIKSAGGSAGGS [r12_991_JUSTAS]”, the results for the “folding stability dG unfold” value in series [3] and in series [1] were -0.582 ± 0.44 kcal/mol and -0.983 ± 0.48 kcal/mol, respectively.
The matching figures for “SAGGSAGGSGSMTRTSSIQDPELLAAVKAALAAGEPTATVPAPDGRPVTITEYVGDTLTTTVESAGGSAGGS [r12_334_JUSTAS]”: 1.1 ± 0.028 kcal/mol and 0.608 ± 0.043 kcal/mol.
The matching figures for “SAGGSAGGSAGGMTPEEEEALRKAREAAERNPEVPVVEVEVTLPGPDGDPRVIRITLPVRSAGGSAGGSAGG [r7_91_JUSTAS]”: 1.7 ± 0.05 kcal/mol and 1.25 ± 0.066 kcal/mol.
On to “SAGGSAGGSAGGSYRLETLPLPGGYRLVLVHLPDGTVLAVLYNADGTPVLKTFPENYPVASAGGSAGGSAGG [r7_215_TrMRF]”, for which the “folding stability dG unfold” value in series [3] came out at 3.221 ± 0.019 kcal/mol; in series [1] it was 2.71 ± 0.047 kcal/mol.
Turning to “SAGGSEAAPGEKVTITTVTSSVLKTYETPTGTLETESSTSVTTTTVTVPAAAAAAAGVRYSPDPLLSAGGSA [r2_495_JUSTAS]”, the “folding stability dG unfold” value in series [3] is -0.348 ± 0.14 kcal/mol; in series [1], under -1 kcal/mol.
Taken in the same sequence, the figures for “SKPITADEIAKHFPGIKDVEPTPNKKRLDFDNPNGHKPTIEVSPDGTIMIEHQNPDNGQKQEQEIPIDDLSA [r9_427_TrROS]” were 0.596 ± 0.056 kcal/mol and 0.0598 ± 0.26 kcal/mol.
Taken in the same sequence, the figures for “SAGGSAGGSMSEELLAEGPVRIRVRVRNKDGSVEEIEVEAGEEIELPEELKNQDVEIVSIEPVSAGGSAGGS [r12_161_TrROS_Hall]” were 2.15 ± 0.088 kcal/mol and 1.74 ± 0.089 kcal/mol.
Take “SAGVVNATVTVTYPLPGLPERTLTVTLTFPATPEEAAALARALAALVAGLLTLLARLDAVDFDTSTSPDESA [r9_626_TrMRF]”: the results for the “folding stability dG unfold” value in series [3] and in series [1] were 4.148 ± 0.022 kcal/mol and 3.69 ± 0.043 kcal/mol, respectively.
Taken in the same sequence, the figures for “SAGSPVRVELLEEPGKLVLTRVEVAPDGSVLRVEVEVRPEPPLPAAPPLYPELLVPDARGRLVSPLALLSAG [r5_685_JUSTAS]” were 1.36 ± 0.18 kcal/mol and 0.671 ± 0.37 kcal/mol.
Taken in the same sequence, the figures for “SAGGSAGGSAGGVLRPPGFPGAAVLLEEDPDNPDVVKLTVVDPATGEPYEFTVKRSDLTASAGGSAGGSAGG [r17_341_TrMRF]” were 1.16 ± 0.093 kcal/mol and 0.567 ± 0.1 kcal/mol.
The matching figures for “SAGGSAHPPGAPVVRVEVRAELLEERPSPDGVPEATFRVEVEVRVETVPALPPLGGGLADAPDPDLSAGGSA [r2_495_TrMRF]”: 1.8 ± 0.056 kcal/mol and 1.26 ± 0.098 kcal/mol.
For “SAGGSAGGSAMITSDDLEKLLKKLGIDPKKLGPEKLAKIFKELYPDAIITADPEGKAYIYPSAGGSAGGSAG [r3_375_TrMRF]”, the “folding stability dG unfold” value came to 0.467 ± 0.19 kcal/mol in series [3] and 1.2 ± 0.14 kcal/mol in series [1].
Taken in the same sequence, the figures for “SAGGSAGGSAGGTLELEVELADGLRARVRVELDEDGELRVEVEIEPLPAPPPVVVLLFPESAGGSAGGSAGG [r17_65_TrROS_Hall]” were 1.26 ± 0.086 kcal/mol and 0.587 ± 0.19 kcal/mol.
The matching figures for “SAGGSAGGSAGGSPPPGAAPPPLKLEVELVRVDRVELEERDGELSLHVESAEVLVVRLLSAGGSAGGSAGGS [r4_394_TrROS_Hall]”: 3.17 ± 0.085 kcal/mol and 2.61 ± 0.11 kcal/mol.
The matching figures for “SAGGSAGGSAGGGMMPVYTTETIPVPPGVPPEVVKAQVEAVPGVSATFDPATGTLTVTKLSAGGSAGGSAGG [r7_762_JUSTAS]”: 1.09 ± 0.034 kcal/mol and 0.644 ± 0.042 kcal/mol.
In the case of “SAGGSAGGSAMRPPAAVEVTETLEPPGHPLRPVRVKLPGTGEEVVLVTTGESVEAALARAAASAGGSAGGSA [r18_345_JUSTAS]”, the “folding stability dG unfold” value worked out at 1.58 ± 0.046 kcal/mol in series [3] and 1.12 ± 0.25 kcal/mol in series [1].
Take “SAGGSAGGGLVVRSPEAVERLAARLEAEGYEVRVVPGFGERGPFYVVEVRPLPPAPPDPRLDDRSAGGSAGG [r6_181_TrMRF]”: the results for the “folding stability dG unfold” value in series [3] and in series [1] were 2 ± 0.029 kcal/mol and 1.41 ± 0.085 kcal/mol, respectively.
Taken in the same sequence, the figures for “SAGGSAGGSAGKKKYVIKVYFEDTGKEVEIEAESKEEALEAAKRLAEELGLKIKKVEIYPSAGGSAGGSAGG [r11_951_TrROS_Hall]” were 3.94 ± 0.26 kcal/mol and 4.18 ± 0.38 kcal/mol.
The matching figures for “SAGGSAMTLPPGVTVSFSRSPEGTLTVTVTLPDGTPVTLPLATDPAGPLDLTPEELAAAIAAAIAASAGGSA [r15_780_JUSTAS]”: 3.741 ± 0.0095 kcal/mol and 3.37 ± 0.053 kcal/mol.
Taken in the same sequence, the figures for “SAGGSAGGSAVRTIFIPGGNIKDIIELIKSDPGQPVQIHAPDGWVIKITGDKDIDIHPFPDSAGGSAGGSAG [r3_269_TrROS]” were 0.337 ± 0.084 kcal/mol and 0.216 ± 0.15 kcal/mol.
With “SAGGSAGGSAGGPPLRVVEVRYDPETGTLLVTVELPNGERVVARANPSDGTVEVLAVFPSAGGSAGGSAGGS [r10_1255_TrMRF]”, the results for the “folding stability dG unfold” value in series [3] and in series [1] were 1.6 ± 0.05 kcal/mol and 1.09 ± 0.14 kcal/mol, respectively.
“NGEPQKYDIPLWIEDPNGKPHLYRIKVEVRPNPDGNYRAKIELENPGDGKKEEIEMDAPGAPIKPGDWIRIS [r1_14_TrROS]”: the “folding stability dG unfold” value came out at 1.05 ± 0.26 kcal/mol in series [3] and 0.356 ± 0.29 kcal/mol in series [1].
In the case of “SAGGSAGGGAEDAPVLVLLVEAEIDPDRERHLHLKVELDGKLYDADALVFTTPDGKSVMLIVIGSAGGSAGG [r6_324_TrMRF]”, the entries for the “folding stability dG unfold” value in series [3] and in series [1] were 3.19 ± 0.068 kcal/mol and 2.71 ± 0.12 kcal/mol, respectively.
Taken in the same sequence, the figures for “SAGGSAGGSAPYLGADGRFALYRHPDSPEITLYEYDLETGEWRPVASLPADQLPEELLEAESAGGSAGGSAG [r3_241_TrMRF]” were 1.49 ± 0.068 kcal/mol and 0.957 ± 0.045 kcal/mol.
